Measurements from publication PMC9642905.
No constants are given. Whether binding was seen depends on the method and setting. A result given as binding can be weak or reduced; the word gives no strength. Sequences can lack the tags named with a protein. For part of these data: Binding seen in cells or lysates may run through a third protein.

T1: RME-8 DNAJ domain (1322-1388), Duplex LexA two-hybrid fusion (C. elegans) (UniProt G5ED36)
T1 sequence: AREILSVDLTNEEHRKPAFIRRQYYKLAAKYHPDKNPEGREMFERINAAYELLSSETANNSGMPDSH


How the values were obtained:
[1] = target: T1, RME-8 DNAJ domain (1322-1388), Duplex LexA two-hybrid fusion (C. elegans); assay: two-hybrid; Duplex LexA 2-micron system; RME-8 C-terminus (no DNAJ) fragments against the DNAJ domain (1322-1388); spotted on SC-HIS-URA-TRP growth or SC GAL-HIS-TRP-LEU assay media
[2] = target: DNAJ-GST (RME-8 DNAJ domain), wild-type (C. elegans); assay: pull-down; HA-tagged RME-8 C-terminus fragments from an in vitro TnT system incubated with DNAJ-GST Sepharose beads; bound fraction on SDS-PAGE probed with an HA-antibody; only the target purified

Molecule | binding [1] | binding [2]
RME-8 C-terminus (no DNAJ) D1657K, Duplex LexA two-hybrid fusion (C. elegans) (domain or fragment) | binds | –
RME-8 C-terminus (no DNAJ) IWN4 mutant, Duplex LexA two-hybrid fusion (C. elegans) (domain or fragment) | binds | –
HA-tagged RME-8 C-terminus (no DNAJ), wild-type, RME-8(1388-2279) (domain or fragment, UniProt G5ED36 1388-2279) HRIVLCLQAQSIIYSRYSQELSEYKYAGYSQLIKTIDLEAKDEALFIKGGGDLLSAAIELANYTLISSALNAEQLRRDNGLEALVTAFDRCVPMVTMSSLPDDMAVRVCIHVCDCFATAATFEACRQRLMEMPSIFGALTRLLQFSNLPRLSTAAAQCIRAMAVDTLLQFQLFQTGVLWQLVPHLFHFDYTLDEGGVQHSEDSNKQSLANSLARSSCEALAALAGFRENTPDNDGVQASLRALLTPYICRCMKLETNDMVLKTLNSNMENPYMIWDNGTRAEVLEFVERHRTSNEPTSELYGAEFELSVHKNELIVGDIFIRIYNEQPTFALHEPKKVAIDLLDYIKKHSAELTGAPKPKAISDDLIEIDWGNGSQANGNSLDTETKVLMTMTALANLVSANPGALFANKKGVEILLIGNFPLLITYLRCRKHPKLQIAALQVILLAAANKECVTDLATCNVTTTLFTLLRDQPKMIARVLDVLIALSSNGQIGKEMLEHGGLMYILSILCLTNSDQGQRLQAAELLAKLQADKLTGPRWTRFIIKFLPEIFADSLRDSPNTALQMFDSSSENPELIWNEVTRQKVKGIIDTEVGKLYEQHIKDPTVKWNTTSLADKSCAYGDSINGELVVGGVFVRLYVENPGFNVRHPKLFSTELIEKVLELMSRPTPELDLVTKAFVELVRHHPNTADQLPSQGYLPQFCTAMCLQNTSASRSAILILQELSENQFCCDALSQLPCIDGIMKSMKNQPSLMRESAHALKCLMKRNTGELAQQMLSCGMVPYLLQVLDSSMNGVSNGAAARAEIVDALKSAILDLKVGQKIAEILDKSPVWAQFKDQRHDLFLPEARTQAITGGPTGVAGYLTEGMFNPPPMSNQPPPMHQTSGDFQPPL | – | binds
